Ki and IC50 data for one compound are collected here from patent publication US6403602B1 (priority 1997, dated 2002).

Chains of the proteins cited; added tags and fusions are not shown. Residues count along the entry.
UniProt A0ACM8Q262, 1-400: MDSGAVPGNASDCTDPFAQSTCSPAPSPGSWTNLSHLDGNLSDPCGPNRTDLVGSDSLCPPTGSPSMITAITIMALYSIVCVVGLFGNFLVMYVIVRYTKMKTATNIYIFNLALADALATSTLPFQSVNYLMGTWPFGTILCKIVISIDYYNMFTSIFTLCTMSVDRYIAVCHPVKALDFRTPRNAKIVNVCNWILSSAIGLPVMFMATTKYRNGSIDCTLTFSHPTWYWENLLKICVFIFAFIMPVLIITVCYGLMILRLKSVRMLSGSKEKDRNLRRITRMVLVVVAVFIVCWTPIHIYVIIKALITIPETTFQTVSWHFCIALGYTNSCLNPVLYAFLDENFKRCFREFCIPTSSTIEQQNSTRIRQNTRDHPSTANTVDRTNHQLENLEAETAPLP
UniProt P41144, whole entry: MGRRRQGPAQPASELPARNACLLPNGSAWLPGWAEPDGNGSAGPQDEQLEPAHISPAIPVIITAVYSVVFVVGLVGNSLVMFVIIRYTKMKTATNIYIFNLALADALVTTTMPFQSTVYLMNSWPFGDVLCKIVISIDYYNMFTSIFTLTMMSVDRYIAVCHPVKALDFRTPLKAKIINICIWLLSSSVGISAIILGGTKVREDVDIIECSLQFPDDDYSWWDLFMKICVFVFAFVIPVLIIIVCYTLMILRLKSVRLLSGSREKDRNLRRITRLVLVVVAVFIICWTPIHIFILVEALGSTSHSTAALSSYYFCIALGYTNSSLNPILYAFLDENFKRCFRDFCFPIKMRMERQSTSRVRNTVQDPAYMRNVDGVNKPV
UniProt A0A286XTF2, 1-366: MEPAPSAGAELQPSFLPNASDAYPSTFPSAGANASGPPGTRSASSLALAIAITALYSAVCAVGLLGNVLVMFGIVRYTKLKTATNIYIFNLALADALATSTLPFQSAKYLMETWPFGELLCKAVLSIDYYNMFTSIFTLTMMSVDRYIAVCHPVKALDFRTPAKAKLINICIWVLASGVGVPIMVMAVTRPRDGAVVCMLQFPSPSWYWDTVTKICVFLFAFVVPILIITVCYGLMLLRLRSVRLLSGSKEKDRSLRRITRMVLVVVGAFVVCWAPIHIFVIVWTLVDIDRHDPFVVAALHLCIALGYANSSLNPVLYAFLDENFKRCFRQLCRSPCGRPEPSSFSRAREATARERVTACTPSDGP

For one assay, the target named is mu opioid receptors (Cavia porcellus, UniProt A0ACM8Q262). As to the kind of experiment: Inhibition of [^3H]DAMGO binding to μ-sites of guinea-pig brain homogenates. The conditions noted are these: read-out: Ki μ [^3H]DAMGO.
For another assay, the target named is kappa1 sites (Cavia porcellus, UniProt P41144). Briefly: Inhibition of [^3H]U69,593 binding to κ1 sites of guinea-pig brain homogenates. The conditions noted are these: read-out: Ki κ1 [^3H]U69,593.
The test system of another assay is κ2 sites. Briefly: Inhibition of binding to κ2 sites of guinea-pig brain homogenates. The conditions noted are these: read-out: κ2 IC50.
In another assay the target is kappa3 receptors. Briefly: Inhibition of [^3H]NalBzoH binding to κ3 sites of guinea-pig brain homogenates. As to conditions: read-out: Ki κ3 [^3H]NalBzoH.
A further assay concerns the target delta receptors (Cavia porcellus, UniProt A0A286XTF2). As to conditions: read-out: Ki δ [^3H]Cl-DPDPE; guinea-pig brain homogenates.

Each structure is given as a SMILES string. The structures given here were assigned with low confidence; some may be wrong. Some compounds may have been tested in ways that are not shown here.

Broadly, the Ki is the equilibrium dissociation constant of an inhibitor or competing ligand from its target. As usually defined, the IC50 is the midpoint of a concentration-inhibition curve. Regarding `CN(C(=O)Cc1cc(Cl)c(Cl)cc1N=C=S)C1CCCC[C@@H]1N1CCCC1` (some centres unmarked), the Ki on mu opioid receptors was 1950 nM; on kappa1 sites, 10.7 nM; on kappa3 receptors it was 2520 nM; on delta receptors, greater than 10000 nM. In addition, in the assay with κ2 sites, the half-inhibitory concentration (IC50) was found to be 319 nM.
